In PMC3765826 one finds binding data, which are given here for one molecule.

For the assay, the target named is T1, OsMPK3 (rice (Oryza sativa)) (UniProt Q10N20).
T1 sequence: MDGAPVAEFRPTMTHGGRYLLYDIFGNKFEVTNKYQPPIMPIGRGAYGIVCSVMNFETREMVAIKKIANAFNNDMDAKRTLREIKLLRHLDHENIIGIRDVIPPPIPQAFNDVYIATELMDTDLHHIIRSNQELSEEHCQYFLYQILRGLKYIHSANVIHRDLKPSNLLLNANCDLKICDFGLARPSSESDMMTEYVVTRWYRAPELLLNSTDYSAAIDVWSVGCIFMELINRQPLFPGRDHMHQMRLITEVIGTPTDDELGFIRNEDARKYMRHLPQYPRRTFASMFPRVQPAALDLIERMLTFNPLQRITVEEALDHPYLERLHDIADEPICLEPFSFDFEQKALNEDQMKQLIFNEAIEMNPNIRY
The assay is described as follows: two-hybrid; one to one, pGADT7 and pGBKT7 constructs co-transformed in yeast AH109; selected on DDO, interaction checked by growth on QDO (SD-trp-leu-ade-his) at 30°C.

Results are given in words; binding and its absence hold for the method and conditions named.

B1: OsMPK17-1 (protein, UniProt Q5Z9J0 1-580)
chain: MGGGGTLVDGFRRLFHRRTASGSNQSSNAGEEAASSDLEVADDPDLVALRSIRIRVPKRKMPLPVESHKKNTVEMEFFTEYGEASQYQIQEVIGKGSYGVVAAAVDTRTGERVAIKKINDVFEHVSDATRILREIKLLRLLRHPDIVEIKHIMLPPSRREFQDIYVVFELMESDLHQVIRANDDLTPEHYQFFLYQLLRALKYIHAANVFHRDLKPKNILANSDCKLKICDFGLARASFNDAPSAIFWTDYVATRWYRAPELCGSFFSKYTPAIDIWSIGCIFAELLTGRPLFPGKNVVHQLDIITDLLGTPSSETLSRIRNEKARRYLSTMRKKHAVPFSQKFRNTDPLALRLLERLLAFDPKDRSSAEEALADPYFASLANVEREPSRHPISKLEFEFERRKLTKDDVRELIYREILEYHPQMLQEYMKGGEQISFLYPSGVDRFKRQFAHLEENYSKGERGSPLQRKHASLPRERVGVSKDGYNQQNTNDQERSADSVARTTVSPPMSQDAQQHGSAGQNGVTSTDLSSRSYLKSASISASKCVAVKDNKEPEDDYISEEMEGSVDGLSEQVSRMHS
As for B1, the binding entry is recorded as “no binding”.
